Measured values as given in paper PMC5317164.
Results are given in words; binding and its absence hold for the method and conditions named. In cells and extracts the contact can be indirect. A result given as binding can be weak or reduced; the word gives no strength.

By UniProt entry, the sequences of proteins in these tests, tags left out. Where a name states a change or a piece, a line headed by the entry shows the natural chain unless it says otherwise.
UniProt P18206: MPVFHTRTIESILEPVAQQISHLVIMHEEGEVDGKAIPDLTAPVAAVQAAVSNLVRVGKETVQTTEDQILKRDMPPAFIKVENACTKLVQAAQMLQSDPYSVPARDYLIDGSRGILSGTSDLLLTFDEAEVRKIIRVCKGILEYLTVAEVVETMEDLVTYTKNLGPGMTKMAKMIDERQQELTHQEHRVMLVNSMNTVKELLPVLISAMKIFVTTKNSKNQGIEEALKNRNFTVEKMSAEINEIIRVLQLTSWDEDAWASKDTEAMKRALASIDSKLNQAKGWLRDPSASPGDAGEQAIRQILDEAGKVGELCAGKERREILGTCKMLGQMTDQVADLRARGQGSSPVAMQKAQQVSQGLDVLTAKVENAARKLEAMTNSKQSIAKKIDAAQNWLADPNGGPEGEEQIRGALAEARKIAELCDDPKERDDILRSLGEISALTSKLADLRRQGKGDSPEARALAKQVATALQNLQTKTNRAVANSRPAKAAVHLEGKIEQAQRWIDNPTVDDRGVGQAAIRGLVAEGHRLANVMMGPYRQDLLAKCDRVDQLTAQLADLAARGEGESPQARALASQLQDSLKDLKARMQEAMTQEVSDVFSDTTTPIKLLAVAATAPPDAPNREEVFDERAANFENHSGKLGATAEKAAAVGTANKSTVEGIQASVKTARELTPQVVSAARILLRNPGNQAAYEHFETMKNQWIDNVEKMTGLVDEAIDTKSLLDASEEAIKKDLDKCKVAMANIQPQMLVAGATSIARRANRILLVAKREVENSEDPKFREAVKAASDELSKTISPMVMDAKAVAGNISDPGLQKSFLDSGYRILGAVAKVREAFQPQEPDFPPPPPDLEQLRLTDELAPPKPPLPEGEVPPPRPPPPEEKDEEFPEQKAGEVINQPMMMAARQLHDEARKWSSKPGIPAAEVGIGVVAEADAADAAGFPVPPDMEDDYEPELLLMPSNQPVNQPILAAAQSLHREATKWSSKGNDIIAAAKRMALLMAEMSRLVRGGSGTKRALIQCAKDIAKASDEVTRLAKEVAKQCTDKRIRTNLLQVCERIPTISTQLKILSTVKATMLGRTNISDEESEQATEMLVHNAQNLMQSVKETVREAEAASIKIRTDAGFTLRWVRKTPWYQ

Target: Human VCL variant M94I (mEmerald fusion) (human) (UniProt P18206)
Experiment: co-IP; lysates of HEK293 cells transfected for 24 h with VCL (WT, M94I or both) and SCN5A; IP with VCL or SCN5A antibody immobilised on agarose resin (Pierce direct IP kit), 4 °C overnight; Western blot

Human SCN5A (hNav1.5/hH1C1) (from UniProt Q14524)
binding: binds
